Data: the supplement of paper PMC10338343
± gives the standard deviation. The entries are a selection whose mix differs from that of the whole data set. Many of these values have a large error. The list shows a part of the results.

What was measured:
[1] = test system: MILI (PIWIL2) piRISC loaded with L1MC piRNA (26 nt); test: pre-steady-state target cleavage rate (min^-1); higher = faster piRNA-guided slicing of the target; details: guide: L1MC piRNA 5'p-UAACUAAAUACUAUGCAAGCUGUAGG
Summary of the method: (§1)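 Using HEPES–potassium acetate buffer at 33 °C, 1 nM active affinity-purified piRISC with a single synthetic guide was mixed with 0.1 nM transcribed, DNA-blocked target RNA library for 0–8 or 0–960 min, with or without 500 nM GTSF1 partner protein. Uncleaved targets were sequenced and normalised to depth and to weakly complementary targets, and three trials were pooled with k3 capped at 0.0001 min^-1. A burst-and-steady-state fit gave the pre-steady-state cleavage rate.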

[2] = test system: EfPiwi piRISC loaded with L1MC piRNA (26 nt); test: pre-steady-state target cleavage rate (min^-1); guide: L1MC piRNA 5'p-UAACUAAAUACUAUGCAAGCUGUAGG; MIWI and MILI are mouse PIWI proteins and EfPiwi is from a freshwater sponge; tags in brackets are library labels; higher = faster piRNA-guided slicing of the target
Summary of the method: as §1

[3] = auxiliary factor: none (no GTSF1)
[4] = auxiliary factor: 500 nM Ephydatia muelleri Gtsf1
[5] = auxiliary factor: none (no Gtsf1)
[6] = auxiliary factor: 500 nM mouse GTSF1

Row | Sequence | pre-steady-state target cleavage rate [1, 3] | pre-steady-state target cleavage rate [2, 4] | pre-steady-state target cleavage rate [2, 5] | pre-steady-state target cleavage rate [1, 6]
1 | UCCUGGUACAGCUUGCAUAGUAUAUAGAUA | 0.00221 ± 0.0036 | 0.0017 ± 0.003 | 0.0003 ± 0.032 | –
2 | UCCUGGAUGUGCUUGGAUACUAUUUAGUUA | 0.00169 ± 0.0047 | 0.000439 ± 0.011 | 0.000229 ± 0.039 | –
3 | UCCUGGAACAGCGUGCAUAGUAUUUAGUUA | – | 0.0168 ± 0.005 | 0.000654 ± 0.011 | 0.282 ± 0.017
4 | UCCUGGAUGUCGUUGCAUAGUAUUUCGUUA | 0.00135 ± 0.0059 | 0.00062 ± 0.012 | 0.000174 ± 0.041 | –
5 | UCCUCCUAGAGCUUGCAUAGUUUUUAGUUA | 0.00205 ± 0.0029 | 0.00428 ± 0.0017 | 0.000601 ± 0.0084 | –
6 | UCCUCCUACAGCUUGCAUUCUAUUUAGUAA | 0.000834 ± 0.006 | 0.00145 ± 0.0047 | 0.000276 ± 0.014 | –
7 | UCCUGGAUCAGCUUGCAUAGUAUUUUGAAA | 0.00267 ± 0.0032 | 0.00318 ± 0.0016 | 0.00081 ± 0.011 | –
8 | UCCUGGAUGAGCUUGCAUAGAAUUAAGUUA | 0.00118 ± 0.005 | 0.000467 ± 0.015 | 0.000668 ± 0.012 | –
9 | UCCUGGAACAGCUUGCUUAGUAUUAAGUUA | 0.00193 ± 0.003 | 0.00237 ± 0.002 | 0.000898 ± 0.0096 | –
10 | UCCUGGAUGUCGAAGCAUAGAUUUUAGUUA | – | 0.000158 ± 0.027 | 0.000441 ± 0.011 | 0.000742 ± 0.013
11 | UCCUGGAUGUCGAUGCAUAGUAUUCAGUUA | 0.0013 ± 0.0048 | 0.00199 ± 0.0056 | < 0.0001 | –
12 | UCCUGGAACAGCUUGCUAAGUAUUUAGUAA | 0.00163 ± 0.0034 | 0.000936 ± 0.0043 | 0.00051 ± 0.013 | –
13 | UCCUGCUACUGCUUGCAUAGUAUUUAGUAA | 0.00146 ± 0.0035 | 0.00464 ± 0.0016 | 0.000388 ± 0.013 | –
14 | UCCUGGUACAGCUUGCAUAGUAUUUACUAA | 0.00132 ± 0.0054 | 0.00229 ± 0.003 | 0.000208 ± 0.038 | –
15 | UCCUGGAUGAGCUUGCAUAGAAUUUAGAAA | 0.000693 ± 0.0089 | 0.00122 ± 0.0032 | 0.000456 ± 0.013 | –
16 | UCCUCCUACAGCUUGGAUAGAAUUUAGUUA | 0.00181 ± 0.0034 | 0.00574 ± 0.0016 | 0.00128 ± 0.0054 | –
17 | UCCUGGAUGUCCUUGCAUAGUAUUUUGUUA | 0.00228 ± 0.0041 | 0.00191 ± 0.0029 | 0.000683 ± 0.011 | –
18 | UCCUGGAACAGCUUGCAAAGUAUUUUGUUA | 0.00159 ± 0.0041 | 0.0012 ± 0.0036 | 0.000322 ± 0.025 | –

Two entries drawn at random from the list so far, as already listed:
Row | Sequence | pre-steady-state target cleavage rate [1, 3] | pre-steady-state target cleavage rate [2, 4] | pre-steady-state target cleavage rate [2, 5] | pre-steady-state target cleavage rate [1, 6]
10 | UCCUGGAUGUCGAAGCAUAGAUUUUAGUUA | – | 0.000158 ± 0.027 | 0.000441 ± 0.011 | 0.000742 ± 0.013
6 | UCCUCCUACAGCUUGCAUUCUAUUUAGUAA | 0.000834 ± 0.006 | 0.00145 ± 0.0047 | 0.000276 ± 0.014 | –
